Assay results reported in PubChem BioAssay AID1347076 (National Center for Advancing Translational Sciences (NCATS), 2019).
Out of some 400,000 compounds screened, about 13,000 (3.2%) were called active. The shares of active, inactive and inconclusive entries below differ from those in the screen. Calls follow the shape of the dose curve; as a rule, active = well fitted cell-killing curve with a large enough effect; inconclusive = small, poorly fitted or top-dose-only effect, or effect the other way; inactive = flat fitted curve, though single readings scatter. Potencies of inconclusive entries are doubtful fits and often do not repeat.

test: qHTS assay for MDR1-selective chemotherapeutics: Primary screen using the drug-selected MDR subline cells KB-V1; settings: KB-V1 MDR cells viability, CellTiter-Glo, 72 h; activity change, negative = cytotoxicity: at 46.1 µM (top of the series); also: nearly all actives have a fitted effect of over 60% in size
Summary of the method: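 Readout: CellTiter-Glo luminescence, 10 min after addition. Cells: KB-V1 MDR subline, 72 h at 37 degrees C with compound. Analysis: corrected, normalized data fitted to concentration-effect curves.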
% is scaled to controls: 0 for no effect and ±100 for the full control effect; potency is read from the fitted curve at half-maximal effect.

Compound | Potency | activity change, negative = cytotoxicity
Cc1cccc2cc(C(c3nnnn3CC3CCCO3)N3CCc4ccccc4C3)c(=O)[nH]c12 (stereo unspecified) | inconclusive: 14.6 µM [cytotoxic, partial curve] | –
COc1ccc(Cl)cc1NC(=O)CN1Cc2ccccc2C1=O | active: 5.17 µM | –
COc1ccc(S(=O)(=O)c2cnc3ccccc3n2)cc1 | – | inactive: 9.61%
COC(=O)c1ccc2c(c1)N(Cc1ccccc1)C(=O)c1ccccc1S2(=O)=O | inconclusive: 3.26 µM [cytotoxic, full curve] | –
COc1ccc(NC(=O)COC(=O)Cn2cnc3ccccc3c2=O)c(OC)c1 | – | inactive: 11.4%
CC(/C=C/c1ccco1)=N/NC(=O)OC(C)(C)C | inconclusive: 25.9 µM [rising, partial curve, poor fit] | –
O=C(Cc1nnc(NC(=O)Nc2ccc(F)cc2)s1)NCc1ccccc1 | – | inconclusive: 25.9%
CCc1noc(C)c1C(=O)N(CCOC)c1c(N)n(CC(C)C)c(=O)[nH]c1=O | inconclusive: 20.6 µM [rising, single point] | –
Cc1ccc(S(=O)(=O)Nc2ccc(Nc3nccn4c(-c5ccccc5Oc5ccccc5)cnc34)cc2)cc1 | – | inactive: 2.22%
Cc1ccccc1CN1CCNC(=O)C1CC(=O)NCCN1CCCCC1=O (stereo unspecified) | – | inactive: 28.6%
Cc1cccc(CNC(=O)CN2C(=O)CCn3nc(-c4cn(C)c5ccccc45)cc32)c1 | – | inactive: -5.36%
CCC1CCCCN1C(=O)COC(=O)CSc1ccc(C(N)=O)cc1[N+](=O)[O-] (stereo unspecified) | – | inactive: 0.109%
CCOc1ccc(-c2cn(-c3ccccc3OC)c(=S)[nH]2)cc1 | inconclusive: 29.1 µM [cytotoxic, single point] | –
CN(C)c1nc(N)nc(CSc2nnnn2C)n1 | inconclusive: 29.1 µM [rising, single point] | –
Nc1nc(N)c2sc3nc(C(F)(F)F)cc(C(F)(F)F)c3c2n1 | active: 18.4 µM | –
CCc1ccc(/C=N/NC(=O)c2nnn(-c3nonc3N)c2C(C)C)cc1 | – | inactive: -4.51%
O=C(CSc1nc2ccc(Nc3nc(N4CCOCC4)nc(N4CCOCC4)n3)cc2s1)N1CCOCC1 | – | inactive: -52.8%
CCc1ccc(S(=O)(=O)c2nnn3c2nc(NCc2ccccc2)c2cc(Cl)ccc23)cc1 | – | inactive: 12.3%
CN(CC(=O)Nc1cccc(F)c1)C(=O)c1ccc(COc2ccccc2)cc1 | inconclusive: 29.1 µM [cytotoxic, single point] | –
Cc1nnsc1NC(=O)OCc1ccc(C(F)(F)F)cc1 | inconclusive: 29.1 µM [cytotoxic, single point] | –
CC(C)Oc1ccc(F)cc1-c1cc(C(=O)NCc2cc(C(F)(F)F)cc(C(F)(F)F)c2)[nH]n1 | inconclusive: 20.6 µM [cytotoxic, single point] | –
O=C(Nc1ccccc1)c1ccc(-c2ccccc2Cl)o1 | – | inactive: -9.71%
COc1cc(-c2ccc3c(=O)c4ccccc4n(C)c3c2)cc(OC)c1OC | inconclusive: 29.1 µM [cytotoxic, single point] | –
c1ccc(CN2CCN(C(c3ccccc3)c3nnnn3Cc3ccccc3)CC2)cc1 (stereo unspecified) | inconclusive: 18.4 µM [cytotoxic, partial curve, poor fit] | –

Compound | Potency | activity change, negative = cytotoxicity
COc1ccc(NC(=S)N2CCC(N(C)CC3CCCO3)CC2)cc1 (stereo unspecified) | – | inactive: -1.35%
Cc1cccc(N(C(=O)Cn2nnc(-c3ccc(F)cc3)n2)C(C(=O)NC(C)(C)C)c2ccncc2)c1 (stereo unspecified) | inconclusive: 0.231 µM [cytotoxic, full curve, poor fit] | –
O=S(=O)(c1ccc(Cl)nc1)N1CCOCC1 | inconclusive: 9.2 µM [rising, partial curve] | –
Cn1nc(C(=O)NC2CCCCC2)c2ccccc2c1=O | active: 16.4 µM | –
N#Cc1c(-c2ccc3c(c2)OCO3)cc[nH]c1=O | inconclusive: 25.9 µM [cytotoxic, partial curve, poor fit] | –
COc1cccc(CNC(=O)CCC2CCCN(C(=O)c3ccc(OC)o3)C2)c1 (stereo unspecified) | inconclusive: 29.1 µM [cytotoxic, single point] | –
COC(=O)Cn1c(=NC(=O)c2cc(-c3cccs3)nc3ccccc23)sc2cc(S(N)(=O)=O)ccc21 | inconclusive: 10.3 µM [cytotoxic, partial curve] | –
O=C(/C=C/c1cccs1)c1cc(Br)ccc1OC(=O)N1CCOCC1 | inconclusive: 23.1 µM [cytotoxic, partial curve] | –
O=C(CN(C1CCCCC1)S(=O)(=O)c1ccc(Br)cc1)NCc1cccnc1 | inconclusive: 6.51 µM [cytotoxic, partial curve] | –
COc1ccccc1-c1nc2cc(NC(=O)c3ccccc3Cl)ccc2o1 | inconclusive: 16.4 µM [cytotoxic, single point] | –
CC(=O)Nc1ccc(NC(=O)C2C3C=CC(C3)C2C(=O)O)cc1 (stereo unspecified) | inconclusive: 29.1 µM [rising, single point] | –
COc1cccc(NC(=O)CN(C)C(=O)CSCC(=O)Nc2ccc(C)cc2)c1 | inconclusive: 29.1 µM [cytotoxic, single point] | –
COc1ccccc1NC(=O)CC(c1ccc(OC(C)C)cc1)c1ccccc1OC (stereo unspecified) | active: 4.61 µM | –
O=C(CN1CCN(c2cccc(C(F)(F)F)c2)CC1)Nc1cccc(C(F)(F)F)c1 | – | inactive: 6.24%
COc1cccc(-c2c(C(=O)N/N=C/c3ccoc3)nnn2-c2nonc2N)c1 | inconclusive: 8.2 µM [rising, partial curve] | –
COc1ccc(-c2cc(-c3ccccc3)nc3ncnn23)cc1 | inconclusive: 18.4 µM [rising, single point] | –
Oc1[nH]c2ccccc2c1N=Nc1nc2ccccc2s1 | – | inactive: 0%
O=C(COC(=O)c1ccc2c(c1)OCCO2)Nc1ccccc1C(F)(F)F | inconclusive: 20.6 µM [rising, single point] | –
Clc1ccc(-c2nnc(-c3ccco3)nc2N2CCCCC2)cc1 | active: 18.4 µM | –
OC(CNCC1COc2ccccc2O1)COCc1cccs1 (stereo unspecified) | active: 20.6 µM | –
CC(C(=O)N1CCCCC1)N(C)CC(=O)Nc1cccc(F)c1 (stereo unspecified) | – | inactive: 11.2%
COCCN(CCOC)c1nc(-c2ccc(Cl)cc2)nc2ccccc12 | inconclusive: 29.1 µM [cytotoxic, partial curve, poor fit] | –
Cc1ccccc1NCc1nc2ccccc2n1CCOc1ccccc1 | inconclusive: 25.9 µM [cytotoxic, single point] | –
O=C(Nc1nc(-c2ccccn2)cs1)c1ccc2c(c1)OCCO2 | inconclusive: 16.4 µM [cytotoxic, partial curve] | –

Compound | Potency | activity change, negative = cytotoxicity
O=S(=O)(c1ccc(Cl)s1)N1CCN(CCc2ccccc2)CC1 | inconclusive: 23.1 µM [cytotoxic, partial curve, poor fit] | –
CCOc1ccc(NC(=O)CN(C)C(=O)c2cc(-c3ccco3)nc3ccccc23)cc1OCC | inconclusive: 23.1 µM [cytotoxic, single point] | –
Cc1cc(C)n(C(=O)N(c2ccccc2)c2ccccc2)n1 | inconclusive: 6.51 µM [cytotoxic, full curve] | –
CC(C)CCN1CCN(Cc2cccn2-c2nccs2)CC1CCO (stereo unspecified) | – | inactive: 1.99%
O=Nc1ccc(NOC(=O)c2ccccc2Br)cc1 | inconclusive: 20.6 µM [rising, single point] | –
COc1ccc(C(=O)Nc2nc3c(s2)Cc2cc(OC)ccc2-3)cc1 | inconclusive: 29.1 µM [cytotoxic, single point] | –
CC(C)(C)c1cc(NC(=O)COC(=O)c2ccc(O)cc2O)n(-c2ccccc2)n1 | inconclusive: 29.1 µM [cytotoxic, single point] | –
COc1cc(S(=O)(=O)N2CCN(c3ccccc3)CC2)ccc1F | inconclusive: 11.6 µM [cytotoxic, partial curve] | –
CNC(=O)CSc1cn(CC(=O)N(C(C)C)C(C)C)c2ccccc12 | – | inactive: -13%
Cc1c(CN2CCC(CO)(Cc3cccc(C(F)(F)F)c3)CC2)c2ccccc2n1C | inconclusive: 25.9 µM [cytotoxic, single point] | –
COc1ccc(NC(=O)CSc2oc(-c3ccco3)nc2S(=O)(=O)c2ccccc2)c(OC)c1 | – | inactive: 0%
Cc1ccc2c(c1)N(C(=O)N1CCC(C(=O)NCc3ccccc3F)CC1)CC(C)O2 (stereo unspecified) | – | inactive: 8.75%
COc1ccc(CCNC(=O)CSc2nc3sc(C(=O)O)c(C)c3c(=O)[nH]2)cc1OC | inconclusive: 29.1 µM [cytotoxic, partial curve, poor fit] | –
CC(C)=CCN1CCN(Cc2cccc3nccnc23)CC1CCO (stereo unspecified) | inconclusive: 13 µM [cytotoxic, partial curve, poor fit] | –
NC(=O)c1cc(-c2csc(NCCc3ccccc3)n2)ccc1O | – | inconclusive: -9.23%
Nc1c(C(=O)c2ccccc2)sc(Nc2ccc(Cl)c(Cl)c2)c1C(=O)Nc1ccccc1 | inconclusive: 25.9 µM [cytotoxic, single point] | –
COc1ccc(OCCNC(=O)c2ccccc2OCC(=O)Nc2ccc(NC(C)=O)cc2)cc1 | – | inactive: -6.98%
C[C@H](CO)N1C[C@H](C)[C@H](CN(C)C(=O)Cc2cccnc2)Oc2ncc(Br)cc2C1=O | – | inactive: 14%
COc1cc2c(NC3CCN(C)CC3)nc(N3CCCN(C)CC3)nc2cc1OCCOCCN(C)C | inconclusive: 29.1 µM [rising, single point] | –
Cc1ccc(-n2nnnc2SC(C)C(=O)Nc2ccccc2-c2ccccc2)cc1 (stereo unspecified) | inconclusive: 14.6 µM [cytotoxic, partial curve] | –
O=C(CSc1n[nH]c(-c2ccccc2)n1)Nc1ccccc1O | – | inactive: 6.82%
CCOC(=O)CSc1nc2c(sc3ccccc32)c(=O)n1Cc1ccc(OC)cc1 | – | inactive: 25.2%
COc1ccccc1-c1csc(C(NC(C)=O)c2ccccc2)n1 (stereo unspecified) | – | inactive: 22.6%

Quoted from the listing.
For Potency, Nc1c(C(=O)c2ccccc2)sc(Nc2ccc(Cl)c(Cl)c2)c1C(=O)Nc1ccccc1 is listed with inconclusive: 25.9 µM [cytotoxic, single point]
For activity change, negative = cytotoxicity, CNC(=O)CSc1cn(CC(=O)N(C(C)C)C(C)C)c2ccccc12 is listed with inactive: -13%
For activity change, negative = cytotoxicity, Cc1cccc(CNC(=O)CN2C(=O)CCn3nc(-c4cn(C)c5ccccc45)cc32)c1 is listed with inactive: -5.36%
For Potency, c1ccc(CN2CCN(C(c3ccccc3)c3nnnn3Cc3ccccc3)CC2)cc1 (stereo unspecified) is listed with inconclusive: 18.4 µM [cytotoxic, partial curve, poor fit]
For Potency, CN(C)c1nc(N)nc(CSc2nnnn2C)n1 is listed with inconclusive: 29.1 µM [rising, single point]
